# Reference: PubChem BioAssay AID652054 (National Center for Advancing Translational Sciences (NCATS), 2013)
# Amino acid sequences for entries named in this document (tags omitted).
# UniProt P35462, whole entry, looked up: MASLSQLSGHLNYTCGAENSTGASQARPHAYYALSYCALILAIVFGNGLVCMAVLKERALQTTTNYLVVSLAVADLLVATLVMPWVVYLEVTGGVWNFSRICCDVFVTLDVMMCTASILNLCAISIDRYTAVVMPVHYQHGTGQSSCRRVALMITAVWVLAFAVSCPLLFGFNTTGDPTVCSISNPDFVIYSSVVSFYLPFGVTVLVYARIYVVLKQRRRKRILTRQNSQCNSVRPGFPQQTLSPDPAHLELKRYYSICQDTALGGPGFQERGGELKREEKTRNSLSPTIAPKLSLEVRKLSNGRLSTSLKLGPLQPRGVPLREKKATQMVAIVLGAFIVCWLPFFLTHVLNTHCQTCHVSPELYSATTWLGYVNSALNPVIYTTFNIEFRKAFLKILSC
# Screen size: about 360,000 compounds; about 9,100 (2.5%) were called active. Inconclusive results, whose numbers are uncertain, are shown with a selection of clear calls. No stated cut-off is given here; in the data, active means max response below about -50%; inconclusive means no clear call, values can overlap the other calls; inactive means above that. Peptide text beside a SMILES is read from it. * marks the point of attachment. CH2Cl = ClC*
# Target: D(3) dopamine receptor (Homo sapiens) (UniProt P35462)
# Test: qHTS of D3 Dopamine Receptor Antagonist: qHTS
# Conditions: D3R cells, DiscoveRx beta-arrestin luminescence, antagonist mode; active compounds read low
# In short: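 Cells expressing the human receptor were seeded at 1500 cells/well, incubated overnight at 37 degrees C in 5% CO2, then exposed to library compounds with dopamine controls for 90 minutes at 37 degrees C before luminescent detection.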
# On the % scale 0 is the no-effect control and ±100 the full control effect.
row,SMILES,"max response, negative = inhibition"
1,N#CC(=C1NC(=O)c2ccccc21)c1nc2ccccc2n1CCO,inconclusive: -38.4%
2,O=C1NC(=O)c2cc([N+](=O)[O-])cc3cccc1c23,inconclusive: -31.2%
3,Cc1ccc(CN2CCN(c3ccccc3)CC2)o1,inconclusive: -43.2%
4,CC(C)Cc1cc(C(=O)NCc2cccs2)no1,inconclusive: -37.6%
5,CCC(=O)OCCNc1cc(Sc2nc3ccccc3s2)c2nonc2c1[N+](=O)[O-],active: -87.8%
6,COc1ccc(C(CNc2ncnc3sc(C)c(C)c23)N(C)C)cc1 (configuration not stated),active: -71.1%
7,CC(=O)/C(=N\Nc1ccc(Cl)cc1)Sc1nnc(-c2ccccc2)n1-c1ccccc1,inconclusive: -44.3%
8,COc1ccccc1/C=C/CN1CCCCC1,inconclusive: -30.4%
9,Fc1ccc(-c2cc(-c3cccs3)cc(-c3ccccc3)n2)cc1,inactive: -13.3%
10,Cc1nn(C)c(C(=O)Nc2ccn(Cc3ccccc3F)n2)c1[N+](=O)[O-],inactive: -4.36%
11,CCc1cccc(NC(=O)Cc2ccc([N+](=O)[O-])cc2)c1,inconclusive: -31.7%
12,COc1ccc(Cl)cc1NC(=O)CN(C)C(=O)c1cc(C)oc1C,inactive: -1.79%
13,CC1=NN2C(=N)/C(=C\c3cc(C)n(-c4cccc(C)c4)c3C)C(=O)N=C2S1,inconclusive: -41.3%
14,O=C(c1cc(S(=O)(=O)N2CCOCC2)c(Cl)cc1Cl)N1CCCCC1,inactive: 12.3%
15,COc1cc(C[C@@H]2C(=O)OC[C@H]2Cc2ccc(OC)c(OC)c2)ccc1O,inactive: 43.8%
16,c1ccc(Nc2nc(N3CCNCC3)nc(N3CCOCC3)n2)cc1,active: -79.3%
17,COC(=O)c1ccc(N=Nc2c(C)[nH]n(-c3ccccc3)c2=O)cc1,inconclusive: -33.4%
18,Cc1ccc(-c2nc(SCC(=O)Nc3cc(S(=O)(=O)N4CCCCC4)ccc3Cl)n[nH]2)cc1,inactive: 9.02%
19,O=C(Cc1c(F)cccc1Cl)Nc1ccon1,inactive: 4.34%
20,CC(C)(C)NC(=O)c1ccc(COCC(F)(F)F)o1,inconclusive: -31.9%
21,Cc1ccc(NC(=S)NNC(=O)c2cn(C)nc2C)cc1,active: -66.9%
22,CN1CCN(CCOCCOc2ccc(Br)cc2Cl)CC1,active: -61.2%

# Molecules from the list above containing an aryl methoxy group:
row,SMILES,"max response, negative = inhibition"
6,COc1ccc(C(CNc2ncnc3sc(C)c(C)c23)N(C)C)cc1 (configuration not stated),active: -71.1%
8,COc1ccccc1/C=C/CN1CCCCC1,inconclusive: -30.4%
12,COc1ccc(Cl)cc1NC(=O)CN(C)C(=O)c1cc(C)oc1C,inactive: -1.79%
15,COc1cc(C[C@@H]2C(=O)OC[C@H]2Cc2ccc(OC)c(OC)c2)ccc1O,inactive: 43.8%

# Later entries

row,SMILES,"max response, negative = inhibition"
1,Cc1ccc(OC(=S)Nc2ccc(F)cc2)cc1,inconclusive: -49.5%
2,Nn1c(N2CCCCC2)nc2ccccc21,inconclusive: -35.2%
3,O=C(COC(=O)C1=COCCO1)NCc1ccc(Cl)cc1Cl,inconclusive: -30.7%
4,COc1ccc(NC(=O)CN2CCc3ccccc3C2)cc1,active: -80.1%
5,O=S(=O)(NC1CCCC1)c1ccccc1Br,inconclusive: -39.3%
6,O=C(CCN=C1NS(=O)(=O)c2ccccc21)N1CCc2ccccc2C1,inconclusive: -37.7%
7,CC(C)(C)S(=O)(=O)N1Cc2cc(CO)cc(CCO)c2[C@@H]1CCO,inactive: 0%
8,CSc1nc2ccccc2cc1/C=C(\C#N)c1ccc(Cl)c(Cl)c1,inconclusive: -37.9%
9,CC(=O)NC(CC(C)C)C(=O)NC(Cc1ccccc1)C(=O)CCl (stereo not drawn) (Ac-Leu-Phe-CH2Cl; configuration not given here),inconclusive: -48.4%
10,O=C(N/N=C/C=C/c1ccccc1[N+](=O)[O-])c1cccs1,inconclusive: -42%
11,O=[N+]([O-])c1cc(Cc2ccccc2)cc(C=Nc2ccc(N3CCOCC3)cc2)c1O,active: -66.6%
12,CCOc1ccc2oc(C(=O)N(Cc3nnc(-c4ccccc4Cl)o3)C3CC3)c(C)c2c1,inactive: 6.77%
13,CC(NCC(O)COCc1ccc(Cl)cc1)c1ccccc1 (configuration not stated),inactive: 1.18%
14,CCc1ccc2nc(N3CCN(C)CC3)c(C#N)cc2c1,active: -67.9%
15,Cc1c(NC(=O)c2ccc(=O)oc2)c(=O)n(-c2ccccc2)n1C,inconclusive: -34.8%
16,O=C(CSc1nc2ccccc2[nH]1)Nc1cc(C(F)(F)F)ccc1N1CCOCC1,inconclusive: -36.3%
17,COc1ccc(C(NC(=O)C2CCN(CCCOc3ccccc3)CC2)c2ccccn2)cc1 (configuration not stated),active: -110%
18,O=C(Nc1ccc2c(c1)[C@@H]1C[C@@H](CC(=O)N3CCCCC3)O[C@@H](CO)[C@@H]1O2)NC1CCCCC1,inconclusive: -32.2%
19,CS(=O)(=O)c1sc2nc(-c3cccs3)cc(-c3ccccc3)c2c1N,inconclusive: -36.6%
20,CN1C(=O)/C(=C2\SC(N3CCCCCC3)=NC2=O)c2ccccc21,active: -67.4%
21,COC(=O)C1=C(N)Oc2cc(C)n(Cc3cccnc3)c(=O)c2C1c1cc(OC)ccc1OC (configuration not stated),inconclusive: -31.6%
22,Cc1ccc(S(=O)(=O)N2CCN(C(=O)c3ccco3)CC2)cc1C,inactive: 26%

row,SMILES,"max response, negative = inhibition"
1,CCOc1ccc(NC(=O)CCN2CCN(c3ccccc3OC)CC2)cc1,active: -90.7%
2,Cc1cc(C)n(-c2nc3c(c(=O)[nH]c(=O)n3C)n2C)n1,inconclusive: -35.9%
3,CCn1c(COc2ccc(C)cc2)nnc1SCc1nc2ccccc2[nH]1,inconclusive: -36.1%
4,Cc1cc(C)n(-c2nc(NC(C)(C)C)nc(NC(C)(C)C)n2)n1,active: -62.3%
5,COc1cccc(C2C3CN(C)CC=C3C(C#N)=C(N)C2(C#N)C#N)c1OC (configuration not stated),inconclusive: -37.2%
6,CCOc1ccc(-c2nn(-c3ccccc3)cc2/C=C2\SC(N)=NC2=O)cc1C,inconclusive: -38%
7,O=C(NC1CCCCC1)C1CCCN(S(=O)(=O)c2cccs2)C1 (configuration not stated),inconclusive: -43.4%
8,O=C(Cn1cnc2ccccc21)N/N=C/c1ccccc1,inactive: -14.7%
9,O=C(Cc1ccccc1)N(c1ccccc1)c1ccccc1,inactive: 6.3%
10,COc1ccccc1NS(=O)(=O)c1ccc(N/N=C/c2c(C)nn(-c3ccccc3)c2N2CCCC2)c([N+](=O)[O-])c1,inconclusive: -34.3%
11,Cc1ncc(CO)c(/C=N/NC(=O)c2cc3c(s2)CCCC3)c1O,inactive: -7.05%
12,Cc1cc(NS(=O)(=O)c2ccc(NC(=S)NC(=O)c3ccc(Cl)cc3Cl)cc2)no1,inconclusive: -43.9%
13,c1ccc2c(c1)OCC(c1csc3ncnc(N4CCCCC4)c13)O2 (configuration not stated),inconclusive: -41.5%
14,CCCOc1ccc(-c2nc(C#N)c(N3CCN(C)CC3)o2)cc1,inconclusive: -49.8%
15,O=C(NCc1ccccc1)Nc1cccn(Cc2ccccc2Cl)c1=O,inactive: 17.6%
16,O=C(N/N=C\c1cccc([N+](=O)[O-])c1O)C1COc2ccccc2O1 (configuration not stated),inconclusive: -41.3%
17,Nc1nc(CN2CCN(c3ccccn3)CC2)nc(Nc2ccc(Cl)cc2)n1,inconclusive: -41.2%
18,Cc1ccc(C(C)C)c(OCC(O)CN2CCc3ccccc3C2)c1 (configuration not stated),inconclusive: -45.5%
19,COc1ccc(S(=O)(=O)NC2CC3CCC2C3)cc1Br (configuration not stated),inconclusive: -31.8%
20,CN1C2CCC1/C(=C\c1ccccc1F)C(=O)/C2=C/c1ccccc1F,active: -53.6%
21,COc1ccccc1CN1CCN(Cc2nc(-c3ccc(C)cc3)oc2C)CC1,inactive: -16.6%
22,O=C(NCc1cccc(Cl)c1)c1ccc(-n2ccnc2)c2ccoc12,inconclusive: -34%

# 2 compounds drawn at random from the list so far, as already listed:
row,SMILES,"max response, negative = inhibition"
10,COc1ccccc1NS(=O)(=O)c1ccc(N/N=C/c2c(C)nn(-c3ccccc3)c2N2CCCC2)c([N+](=O)[O-])c1,inconclusive: -34.3%
13,c1ccc2c(c1)OCC(c1csc3ncnc(N4CCCCC4)c13)O2 (configuration not stated),inconclusive: -41.5%

# Next part

row,SMILES,"max response, negative = inhibition"
1,CCC1(CC)NC(=S)NC1=S,inactive: -9.86%
2,CN(C)c1ccc(NC2=C(Cl)C(=O)c3ccccc3C2=O)cc1,active: -93.2%
3,Cc1ccn2c(NC(C)(C)C)c(-c3cccs3)nc2c1,inactive: 1.63%
4,CCc1ccc([C@H]2[C@@H]3C(=O)C[C@@H]4C(=O)N(C5CCCCC5)C(=O)[C@@H]4[C@@H]3CN2S(=O)(=O)c2ccc(C)cc2)cc1,inactive: 0%
5,O=C(COc1cccc2ccccc12)NNC(=O)CSCCO,active: -50.5%
6,CCOc1cc(/C=C2\C(=O)N(Cc3ccco3)C(C)=C2C(=O)OC)ccc1O,inconclusive: -42.8%
7,Cc1cccc(C)c1NC(=O)c1ccc2sc([C@H]3C[C@H](O)[C@@H](CO)O3)nc2c1,inactive: -25.4%
8,Cc1cn([C@H]2C[C@H](O)[C@@H](CNCC3=Cc4cc(O)ccc4OC3)O2)c(=O)[nH]c1=O,inconclusive: -43.1%
9,CCn1c(=O)c(C(=O)NCc2ccc(OC)c(OC)c2)c(O)c2ccccc21,inconclusive: -49.4%
10,Cc1ccc2c(c1)N(CCCC(=O)Nc1cccc(C(F)(F)F)c1)C(=O)CO2,inactive: -7.91%
11,COc1ccc(CNC(=O)c2cc(=O)c3c(C)cc(C)cc3o2)cc1,inconclusive: -30.8%
12,OCc1ccccc1SSc1ccccc1CO,inconclusive: -40.2%
13,C[C@@H]1CN=C2N(CCNC(=O)CCC3CCCCC3)[C@H](Cc3ccc(O)cc3)CN21,inconclusive: -34.3%
14,Cc1ccc(-c2csc(N3CCC[C@@H]3C(=O)NCCn3c(-c4ccncc4)nc4ccccc43)n2)cc1,inactive: 30.4%
15,CN(C)CC/C=C1/c2cc(F)ccc2CSc2ccc(F)cc21,inconclusive: -30.9%
16,C=C1c2cc(C)ccc2NC(=O)N1c1ccc(C)cc1,inconclusive: -41.5%
17,CC1CC(C)CN(c2ccc(C(=O)NCc3ccc4c(c3)OCO4)cc2[N+](=O)[O-])C1 (configuration not stated),inconclusive: -37.1%
18,COc1ccc(S(=O)(=O)Nc2ccc3c(c2)C(=O)N([C@H](C)CO)C[C@H](C)[C@@H](CN(C)C(=O)Nc2ccc(F)cc2)OCCCC[C@H](C)O3)cc1,inconclusive: -31.1%
19,O=C1Nc2ccc([N+](=O)[O-])cc2C1(O)N1CCCCC1 (configuration not stated),inconclusive: -31.4%
20,O=C(CCc1nc2ccccc2c(=O)[nH]1)NCc1cccc(Cl)c1,inconclusive: -34%
21,CCCn1nc(NS(=O)(=O)c2cccc3nonc23)c2cc3cc(C)ccc3nc21,inconclusive: -40%
